Patent US20230391837A1
Read-outs that look alike come from different tables or passages of the source. No constants are given. Whether binding was seen depends on the method and setting. Some binding calls cover weakened binding; strength is not graded here.

Assays:
[1] = target: T1, podoplanin (PDPN) receptor on HSC2 human oral squamous cell carcinoma cells (human) (UniProt Q86YL7)
T1 sequence (looked up): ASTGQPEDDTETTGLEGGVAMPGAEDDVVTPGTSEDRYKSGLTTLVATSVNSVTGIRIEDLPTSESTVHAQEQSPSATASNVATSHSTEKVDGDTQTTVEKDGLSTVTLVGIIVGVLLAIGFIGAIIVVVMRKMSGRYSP

[2] = target: T1, podoplanin (PDPN) receptor on HSC2 human oral squamous cell carcinoma cells (human); assay: confocal microscopy, fluorescent MASL on HSC2 cells (FIG. 4)
[3] = target: T1, podoplanin (PDPN) receptor on HSC2 human oral squamous cell carcinoma cells (human); assay: confocal microscopy, fluorescent MASL 2 min on HSC2 cells, PDPN antibody stain

binding [1]: binds
binding [2]: binds
binding [3]: binds
B1: Maackia amurensis seed lectin (MASL) (protein)
chain: SDELSFTINNFVPNEADLLFQGEASVSSTGVLQLTRVENGQPQQYSVGRALYAAPVRIWDNTTGSVASFSTSFTFVVKAPNPTITSDGLAFFLAPPDSQIPSGRVSKYLGLFNNSNSDSSNQIVAVEFDTYFGHSYDPWDPNYRHIGIDVNGIESIKTVQWDWINGGVAFATITYLAPNKTLIASLVYPSNQTSFIVAASVDLKEILPEWVRVGFSAATGYPTQVETHDVLSWSFTSTLEANCDAATEN
